In the supplement of paper PMC10849652 one finds log2 fold change data, which are given here for 31 targets.

Sequences of proteins named here, by UniProt entry; tags and fusion partners are left off. A change or cut given only in a name is not applied to a line headed by its entry.
UniProt Q8IZR5: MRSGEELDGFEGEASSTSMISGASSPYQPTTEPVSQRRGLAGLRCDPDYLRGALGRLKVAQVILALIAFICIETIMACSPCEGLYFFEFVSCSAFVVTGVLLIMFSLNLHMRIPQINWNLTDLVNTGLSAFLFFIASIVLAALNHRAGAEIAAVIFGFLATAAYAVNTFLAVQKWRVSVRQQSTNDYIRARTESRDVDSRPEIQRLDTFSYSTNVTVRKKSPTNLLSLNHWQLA
UniProt G5E9Z2: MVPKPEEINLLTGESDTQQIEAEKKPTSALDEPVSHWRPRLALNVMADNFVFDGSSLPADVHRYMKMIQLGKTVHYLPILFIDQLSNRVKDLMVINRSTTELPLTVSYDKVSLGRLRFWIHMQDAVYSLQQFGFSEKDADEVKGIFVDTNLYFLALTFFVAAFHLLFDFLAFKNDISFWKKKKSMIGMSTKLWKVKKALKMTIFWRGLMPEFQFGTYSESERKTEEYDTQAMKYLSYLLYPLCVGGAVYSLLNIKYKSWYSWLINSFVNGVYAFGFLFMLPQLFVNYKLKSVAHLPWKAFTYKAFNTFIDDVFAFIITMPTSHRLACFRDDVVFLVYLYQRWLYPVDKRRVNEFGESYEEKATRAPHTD
UniProt Q9Y3Y2: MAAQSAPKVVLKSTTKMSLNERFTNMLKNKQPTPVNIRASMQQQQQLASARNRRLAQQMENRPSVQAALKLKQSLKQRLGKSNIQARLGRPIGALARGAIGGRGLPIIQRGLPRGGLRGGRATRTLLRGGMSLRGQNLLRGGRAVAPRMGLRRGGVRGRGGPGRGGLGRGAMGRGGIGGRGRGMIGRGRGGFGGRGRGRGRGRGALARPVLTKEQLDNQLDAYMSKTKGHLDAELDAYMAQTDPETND
UniProt Q13286: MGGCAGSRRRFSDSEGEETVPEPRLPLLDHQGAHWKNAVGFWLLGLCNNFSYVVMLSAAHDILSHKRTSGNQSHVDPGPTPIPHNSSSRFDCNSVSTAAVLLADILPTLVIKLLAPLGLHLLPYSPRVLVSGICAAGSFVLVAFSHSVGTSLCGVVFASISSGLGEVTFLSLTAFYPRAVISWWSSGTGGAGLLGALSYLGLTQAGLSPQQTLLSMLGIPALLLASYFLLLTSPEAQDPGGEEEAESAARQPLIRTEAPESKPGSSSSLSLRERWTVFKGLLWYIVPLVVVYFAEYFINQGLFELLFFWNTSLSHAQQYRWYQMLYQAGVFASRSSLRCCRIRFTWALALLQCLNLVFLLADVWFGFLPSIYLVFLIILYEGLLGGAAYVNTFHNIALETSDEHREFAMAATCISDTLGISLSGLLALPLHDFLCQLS
UniProt Q9Y2V7: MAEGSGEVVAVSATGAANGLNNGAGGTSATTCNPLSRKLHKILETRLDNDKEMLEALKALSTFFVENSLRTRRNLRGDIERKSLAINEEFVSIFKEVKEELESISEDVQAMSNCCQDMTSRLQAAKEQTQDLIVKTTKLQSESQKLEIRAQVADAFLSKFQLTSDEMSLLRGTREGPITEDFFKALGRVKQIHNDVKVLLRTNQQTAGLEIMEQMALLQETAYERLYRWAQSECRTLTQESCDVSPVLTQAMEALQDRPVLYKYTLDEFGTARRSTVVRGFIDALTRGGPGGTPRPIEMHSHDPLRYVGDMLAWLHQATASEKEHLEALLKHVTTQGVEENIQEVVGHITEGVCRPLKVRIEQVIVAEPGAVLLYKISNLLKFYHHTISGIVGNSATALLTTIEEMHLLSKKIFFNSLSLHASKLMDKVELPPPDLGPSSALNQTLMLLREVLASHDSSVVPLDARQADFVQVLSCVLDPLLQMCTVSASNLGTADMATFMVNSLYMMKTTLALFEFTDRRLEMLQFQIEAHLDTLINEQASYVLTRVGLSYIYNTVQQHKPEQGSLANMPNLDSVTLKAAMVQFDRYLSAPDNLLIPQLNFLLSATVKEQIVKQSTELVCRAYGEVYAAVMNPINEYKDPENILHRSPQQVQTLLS
UniProt Q96F85: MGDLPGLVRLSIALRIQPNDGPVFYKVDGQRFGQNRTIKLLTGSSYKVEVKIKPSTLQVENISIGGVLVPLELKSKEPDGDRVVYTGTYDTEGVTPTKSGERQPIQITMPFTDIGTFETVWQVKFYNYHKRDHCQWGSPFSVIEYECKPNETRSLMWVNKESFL
UniProt O15111: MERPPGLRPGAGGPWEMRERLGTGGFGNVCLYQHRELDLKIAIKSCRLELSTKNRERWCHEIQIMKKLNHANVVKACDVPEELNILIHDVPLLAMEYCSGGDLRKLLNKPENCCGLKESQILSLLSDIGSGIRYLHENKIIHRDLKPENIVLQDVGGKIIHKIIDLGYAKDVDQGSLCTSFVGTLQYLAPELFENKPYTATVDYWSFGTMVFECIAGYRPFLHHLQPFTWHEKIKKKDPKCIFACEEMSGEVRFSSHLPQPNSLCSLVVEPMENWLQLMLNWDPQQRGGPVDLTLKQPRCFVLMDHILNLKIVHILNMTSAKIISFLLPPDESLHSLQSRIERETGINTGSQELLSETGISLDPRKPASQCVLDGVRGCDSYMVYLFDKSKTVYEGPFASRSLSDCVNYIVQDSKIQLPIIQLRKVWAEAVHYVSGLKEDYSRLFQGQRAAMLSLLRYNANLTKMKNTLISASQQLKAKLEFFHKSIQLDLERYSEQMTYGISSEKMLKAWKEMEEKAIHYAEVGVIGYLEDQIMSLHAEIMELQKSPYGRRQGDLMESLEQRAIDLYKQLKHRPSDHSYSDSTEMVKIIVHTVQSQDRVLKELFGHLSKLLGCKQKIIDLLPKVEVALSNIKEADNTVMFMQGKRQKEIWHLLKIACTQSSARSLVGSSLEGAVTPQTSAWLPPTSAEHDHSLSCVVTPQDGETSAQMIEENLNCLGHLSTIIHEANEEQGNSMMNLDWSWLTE
UniProt P83436: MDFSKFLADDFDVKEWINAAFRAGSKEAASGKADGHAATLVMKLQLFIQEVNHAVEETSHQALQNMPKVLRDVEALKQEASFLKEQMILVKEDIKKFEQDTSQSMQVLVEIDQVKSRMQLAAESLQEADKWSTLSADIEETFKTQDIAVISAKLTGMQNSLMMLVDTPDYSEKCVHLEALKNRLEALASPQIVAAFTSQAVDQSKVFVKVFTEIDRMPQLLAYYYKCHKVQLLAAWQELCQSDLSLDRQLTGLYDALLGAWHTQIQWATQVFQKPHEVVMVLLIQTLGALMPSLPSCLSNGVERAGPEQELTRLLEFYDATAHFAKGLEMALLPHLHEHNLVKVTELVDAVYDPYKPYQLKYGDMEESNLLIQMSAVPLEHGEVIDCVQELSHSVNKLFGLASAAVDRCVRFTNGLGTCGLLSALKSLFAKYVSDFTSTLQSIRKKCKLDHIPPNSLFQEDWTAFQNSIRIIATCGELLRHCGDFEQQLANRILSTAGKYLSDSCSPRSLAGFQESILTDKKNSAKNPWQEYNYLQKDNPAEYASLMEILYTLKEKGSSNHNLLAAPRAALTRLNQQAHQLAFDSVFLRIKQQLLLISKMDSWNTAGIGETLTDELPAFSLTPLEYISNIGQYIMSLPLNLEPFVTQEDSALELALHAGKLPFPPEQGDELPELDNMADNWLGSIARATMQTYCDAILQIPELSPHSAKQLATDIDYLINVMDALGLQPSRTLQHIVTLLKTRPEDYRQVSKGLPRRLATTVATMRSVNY
UniProt P56277: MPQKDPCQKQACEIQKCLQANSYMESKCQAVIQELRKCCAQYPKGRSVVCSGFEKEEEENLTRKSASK
UniProt P51795: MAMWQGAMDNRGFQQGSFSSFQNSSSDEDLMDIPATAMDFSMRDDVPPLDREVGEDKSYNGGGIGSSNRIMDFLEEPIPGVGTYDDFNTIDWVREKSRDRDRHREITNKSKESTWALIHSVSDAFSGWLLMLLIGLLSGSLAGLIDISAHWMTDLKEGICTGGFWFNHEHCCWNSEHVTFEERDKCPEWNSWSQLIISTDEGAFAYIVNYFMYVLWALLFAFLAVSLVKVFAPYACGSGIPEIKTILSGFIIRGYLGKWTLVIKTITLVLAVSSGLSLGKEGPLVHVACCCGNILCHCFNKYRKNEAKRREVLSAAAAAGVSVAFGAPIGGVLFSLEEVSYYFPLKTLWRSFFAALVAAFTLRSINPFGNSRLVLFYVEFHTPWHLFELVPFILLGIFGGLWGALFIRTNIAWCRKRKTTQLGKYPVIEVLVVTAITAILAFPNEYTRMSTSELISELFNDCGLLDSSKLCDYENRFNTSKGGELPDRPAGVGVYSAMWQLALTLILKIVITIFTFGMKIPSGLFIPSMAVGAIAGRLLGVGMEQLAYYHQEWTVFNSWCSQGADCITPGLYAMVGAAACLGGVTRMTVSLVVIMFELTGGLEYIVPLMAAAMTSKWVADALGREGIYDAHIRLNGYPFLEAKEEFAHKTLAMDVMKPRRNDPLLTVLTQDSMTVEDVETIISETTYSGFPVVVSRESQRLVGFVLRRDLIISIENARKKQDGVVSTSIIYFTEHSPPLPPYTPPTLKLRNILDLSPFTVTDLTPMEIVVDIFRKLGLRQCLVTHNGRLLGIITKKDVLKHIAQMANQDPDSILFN
UniProt Q9BQT9: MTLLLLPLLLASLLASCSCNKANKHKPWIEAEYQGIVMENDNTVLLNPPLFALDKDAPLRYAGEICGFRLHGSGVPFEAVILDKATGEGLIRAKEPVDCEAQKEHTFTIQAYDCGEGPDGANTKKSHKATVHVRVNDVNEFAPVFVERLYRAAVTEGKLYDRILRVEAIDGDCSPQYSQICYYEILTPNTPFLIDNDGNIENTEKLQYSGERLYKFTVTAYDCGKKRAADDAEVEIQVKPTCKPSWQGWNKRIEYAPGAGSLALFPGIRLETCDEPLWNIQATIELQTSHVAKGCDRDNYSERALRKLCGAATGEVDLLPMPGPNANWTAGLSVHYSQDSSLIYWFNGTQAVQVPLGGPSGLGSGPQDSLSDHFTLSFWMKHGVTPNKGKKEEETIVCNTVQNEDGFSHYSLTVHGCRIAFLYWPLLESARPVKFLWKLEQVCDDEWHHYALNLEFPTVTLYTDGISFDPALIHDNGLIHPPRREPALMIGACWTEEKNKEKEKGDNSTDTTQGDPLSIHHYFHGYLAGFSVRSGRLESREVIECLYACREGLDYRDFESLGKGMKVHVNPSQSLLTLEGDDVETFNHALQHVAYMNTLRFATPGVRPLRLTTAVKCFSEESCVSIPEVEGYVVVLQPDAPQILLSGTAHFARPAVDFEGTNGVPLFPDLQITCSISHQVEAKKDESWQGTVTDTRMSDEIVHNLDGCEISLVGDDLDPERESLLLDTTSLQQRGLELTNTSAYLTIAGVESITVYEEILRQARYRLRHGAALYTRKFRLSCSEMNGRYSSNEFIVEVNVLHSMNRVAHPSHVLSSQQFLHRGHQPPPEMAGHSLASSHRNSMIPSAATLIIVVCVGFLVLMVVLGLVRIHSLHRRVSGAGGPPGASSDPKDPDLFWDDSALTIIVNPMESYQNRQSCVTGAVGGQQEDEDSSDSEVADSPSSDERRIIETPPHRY
UniProt P51801: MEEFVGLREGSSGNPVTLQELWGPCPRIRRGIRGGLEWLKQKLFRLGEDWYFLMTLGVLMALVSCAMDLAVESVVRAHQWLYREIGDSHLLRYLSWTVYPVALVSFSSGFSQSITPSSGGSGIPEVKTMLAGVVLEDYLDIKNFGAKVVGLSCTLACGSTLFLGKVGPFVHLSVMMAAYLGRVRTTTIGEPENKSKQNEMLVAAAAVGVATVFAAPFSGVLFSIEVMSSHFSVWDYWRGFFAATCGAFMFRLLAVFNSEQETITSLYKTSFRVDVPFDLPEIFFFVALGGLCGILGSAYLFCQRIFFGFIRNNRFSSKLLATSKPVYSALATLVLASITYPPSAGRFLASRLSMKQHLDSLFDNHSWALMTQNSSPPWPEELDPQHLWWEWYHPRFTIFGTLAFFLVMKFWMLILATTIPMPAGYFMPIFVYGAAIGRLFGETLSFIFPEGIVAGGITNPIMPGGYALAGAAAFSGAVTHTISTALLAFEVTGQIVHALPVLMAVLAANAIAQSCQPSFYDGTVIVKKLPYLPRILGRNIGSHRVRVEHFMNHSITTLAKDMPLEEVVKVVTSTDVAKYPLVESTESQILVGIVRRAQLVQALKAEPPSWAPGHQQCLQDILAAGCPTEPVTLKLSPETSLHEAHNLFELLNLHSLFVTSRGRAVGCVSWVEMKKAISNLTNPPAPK
UniProt P33552, whole entry, looked up: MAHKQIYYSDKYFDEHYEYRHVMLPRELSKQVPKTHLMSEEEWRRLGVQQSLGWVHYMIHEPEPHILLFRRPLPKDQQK
UniProt Q14011: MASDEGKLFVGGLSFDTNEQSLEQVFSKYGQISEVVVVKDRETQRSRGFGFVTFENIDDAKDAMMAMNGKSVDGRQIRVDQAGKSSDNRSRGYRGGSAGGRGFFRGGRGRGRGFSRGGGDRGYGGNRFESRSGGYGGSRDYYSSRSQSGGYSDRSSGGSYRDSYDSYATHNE
UniProt Q86WW8: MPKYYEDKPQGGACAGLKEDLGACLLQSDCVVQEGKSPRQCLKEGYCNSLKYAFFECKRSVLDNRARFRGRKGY

The list shows a part of the results.

Compound in one experiment: CC1=C(C=C(C=C1)NC(=O)C2=CC(=CC=C2)C(C)(C)C#N)NC3=CC4=C(C=C3)N=CN(C4=O)C
As to the kind of experiment: log2 fold change, soluble protein after heating vs DMSO (PISA); higher = thermal stabilisation; K562 cells, 10 uM, 30 min; active = over 0.2 and 3.5 SD of the protein, either way, in both replicates (recomputed). The method in brief: (§1)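 Soluble protein was quantified by TMTpro 16plex LC-MS/MS after channel sums were equalised. It was obtained as the supernatant after 21,000xg for 90 min from pooled aliquots of K562 cells (2×10^6 cells/mL, 10 μM compound, 30 min) heated for 3 min across 48°C-58°C and extracted in PBS with 0.5% NP-40 at 4°C. Thermal stability values are relative to control samples and come from duplicates. They are given as log2 fold changes.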
As to CIP2A (UniProt Q8TCG1), the log2 fold change is inactive: -1.29.
Regarding CLDN12 (UniProt P56749), the log2 fold change is inactive: -0.05.
The same measure, in the same setting: the value for CMTM4 (UniProt Q8IZR5) was inactive: -0.024; that for CLPTM1L (UniProt G5E9Z2) was inactive: 0.122.
In the case of CLP1 (UniProt Q92989), the log2 fold change is inactive: -0.074.
For the target CLASRP (UniProt Q8N2M8), the log2 fold change was inactive: -0.115.
Same read-out and setting: the figure for CHTOP isoform 3 (UniProt Q9Y3Y2) is inactive: 0.114.

Compound in a further experiment: CC1=C(C=C(C=C1)NC(=O)C2=CC(=CC=C2)N(C)C)NC(=O)C3=CC=C(C=C3)O
Described as above. In a few lines: as §1
Turning to CLN3 (UniProt Q13286), the log2 fold change is inactive: 0.004.
For COG6 (UniProt Q9Y2V7), the log2 fold change is inactive: 0.058.
Turning to CLASP2 (UniProt O75122), the log2 fold change was inactive: -0.286.
Still for that read-out and setting: the figure for CNOT4 isoform 9 (UniProt O95628) is inactive: -0.034; for CNRIP1 (UniProt Q96F85) it is inactive: 0.073.
On the same count and under the same terms, the figure for CHUK (UniProt O15111) is inactive: 0.032; for CHST14 (UniProt Q8NCH0) it is inactive: 0.006.
Take COG7 (UniProt P83436): the log2 fold change is inactive: 0.044.
For CMC4 (UniProt P56277), the log2 fold change was inactive: -0.264.
The same measure, in the same setting: the value for CLCN5 isoform 2 (UniProt P51795) was inactive: 0.052; that for COG3 (UniProt Q96JB2) was inactive: -0.099; that for COG5 isoform 2 (UniProt Q9UP83) was inactive: -0.036.

Compound in the next experiment: CC1=CC=C(C=C1)SC2=C3C=C(SC3=CN=C2)C(=O)N
The description is as above. In a few lines: as §1
On to CLN3 (UniProt Q13286), for which the log2 fold change was inactive: -0.025.
The same measure, in the same setting: the value for COG6 (UniProt Q9Y2V7) was inactive: -0.104; that for CLSTN3 isoform 2 (UniProt Q9BQT9) was inactive: -0.069; that for CLASP2 (UniProt O75122) was inactive: -0.103.
Same read-out and setting: the figure for CNOT4 isoform 9 (UniProt O95628) is inactive: 0.003; for CLEC2B (UniProt Q92478) it is inactive: 0.223; for CNRIP1 (UniProt Q96F85) it is inactive: 0.023.
As for CLCNKB (UniProt P51801), the log2 fold change was inactive: -0.058.
Still for that read-out and setting: the value for CKS2 (UniProt P33552) was inactive: -0.031.
Still for that read-out and setting: the figure for CHST14 (UniProt Q8NCH0) is inactive: 0.014; for COG7 (UniProt P83436) it is inactive: -0.061; for CMC4 (UniProt P56277) it is inactive: -0.011.
On the same count and under the same terms, the figure for CLYBL (UniProt Q8N0X4) is inactive: 0.469.
Regarding CIRBP (UniProt Q14011), the log2 fold change is inactive: -0.115.
Same read-out and setting: the figure for CLEC11A (UniProt Q9Y240) is inactive: -0.128.

Compound in the next experiment: CC1=NC(=CC=C1)C2=C(N=C(N2)C(C)(C)C)C3=CC4=NC=CN=C4C=C3
The experiment is described as above. The method in brief:
as §1
On to CLN3 (UniProt Q13286), for which the log2 fold change was inactive: -0.093.
Still for that read-out and setting: the value for CLASP2 (UniProt O75122) was inactive: 0.065.
On to CNOT4 isoform 9 (UniProt O95628), for which the log2 fold change is inactive: 0.017.
As for COA5 (UniProt Q86WW8), the log2 fold change is inactive: -0.07.
With CLCNKB (UniProt P51801), the log2 fold change was inactive: -0.016.
Consider CHST14 (UniProt Q8NCH0), for which the log2 fold change is inactive: -0.139.
Still for that read-out and setting: the figure for CMC4 (UniProt P56277) is inactive: -0.019.
CLCN5 isoform 2 (UniProt P51795): the log2 fold change is inactive: -0.016.
Same read-out and setting: the value for CLASRP (UniProt Q8N2M8) was inactive: 0.051; that for COG3 (UniProt Q96JB2) was inactive: -0.263; that for COG8 (UniProt Q96MW5) was inactive: -0.166.
Still for that read-out and setting: the value for CLINT1 (UniProt Q14677) was inactive: -0.007; that for CHTOP isoform 3 (UniProt Q9Y3Y2) was inactive: -0.193; that for COG5 isoform 2 (UniProt Q9UP83) was inactive: -0.047.

Compound in the next experiment: CCCCN(Cc1ccc(C(=O)NO)cc1)C(=O)Nc1ccccc1 [Nexturastat A]
Described as above. The method in brief:
as §1
For the target CIP2A (UniProt Q8TCG1), the log2 fold change is inactive: 0.618.
For CLN3 (UniProt Q13286), the log2 fold change was inactive: -0.039.
Still for that read-out and setting: the figure for CLSTN3 isoform 2 (UniProt Q9BQT9) is inactive: 0.211.
Same read-out and setting: the figure for CHSY1 (UniProt Q86X52) is inactive: 0.018; for CNRIP1 (UniProt Q96F85) it is inactive: -0.206; for COA5 (UniProt Q86WW8) it is inactive: -0.063.
On to CLCNKB (UniProt P51801), for which the log2 fold change was inactive: -0.245.
The same measure, in the same setting: the figure for CHUK (UniProt O15111) is inactive: 0.435; for CLDN12 (UniProt P56749) it is inactive: 0.313.
Turning to CMTM4 (UniProt Q8IZR5), the log2 fold change is inactive: 0.029.
Same read-out and setting: the figure for CLPTM1L (UniProt G5E9Z2) is inactive: -0.466; for CHST14 (UniProt Q8NCH0) it is inactive: -0.101.
With COG7 (UniProt P83436), the log2 fold change was inactive: 0.104.
Take CIRBP (UniProt Q14011): the log2 fold change is inactive: 0.01.
In the case of CLASRP (UniProt Q8N2M8), the log2 fold change was inactive: 0.019.
Consider COG3 (UniProt Q96JB2), for which the log2 fold change was inactive: 0.341.
Regarding COG8 (UniProt Q96MW5), the log2 fold change was inactive: 0.499.
For the target CLINT1 (UniProt Q14677), the log2 fold change is inactive: 0.259.
Same read-out and setting: the value for CHTOP isoform 3 (UniProt Q9Y3Y2) was inactive: 0.389.

Compound in another experiment: CCCS(=O)(=O)Nc1ccc(F)c(C(=O)c2c[nH]c3ncc(-c4ccc(Cl)cc4)cc23)c1F [vemurafenib]
The experiment is described as above. The method in brief: as §1
As to CLN3 (UniProt Q13286), the log2 fold change is inactive: 0.147.
On the same count and under the same terms, the value for COG6 (UniProt Q9Y2V7) was inactive: -0.109; that for CLSTN3 isoform 2 (UniProt Q9BQT9) was inactive: -0.102; that for CNOT4 isoform 9 (UniProt O95628) was inactive: -0.059.
Same read-out and setting: the value for CNEP1R1 isoform 2 (UniProt Q8N9A8) was inactive: -0.045; that for COA5 (UniProt Q86WW8) was inactive: 0.036; that for CLCNKB (UniProt P51801) was inactive: 0.294.
Regarding CHUK (UniProt O15111), the log2 fold change is inactive: -0.006.
On the same count and under the same terms, the value for CMTM4 (UniProt Q8IZR5) was inactive: -0.112; that for CLPTM1L (UniProt G5E9Z2) was inactive: 0.055; that for CHST14 (UniProt Q8NCH0) was inactive: 0.014.
The same measure, in the same setting: the figure for COG7 (UniProt P83436) is inactive: 0.024; for CLCN5 isoform 2 (UniProt P51795) it is inactive: 0.029.
The same measure, in the same setting: the value for CIRBP (UniProt Q14011) was inactive: 0.053.
As to COG3 (UniProt Q96JB2), the log2 fold change was inactive: 0.071.
Still for that read-out and setting: the value for CLINT1 (UniProt Q14677) was inactive: 0.051.
Take CHTOP isoform 3 (UniProt Q9Y3Y2): the log2 fold change was inactive: 0.054.
On the same count and under the same terms, the figure for COG5 isoform 2 (UniProt Q9UP83) is inactive: -0.072.
